{
  "source": "patent US20190231748A1",
  "about": "“COMPOSITION FOR VAGINA AND ANTIMICROBIAL AGENT COMBINATION FOR USE IN PREPARING COMPOSITION FOR VAGINA” (Shenzhen Eulikan Biotechnology Co., Ltd., priority 2016, published 2019)",
  "test_system": "Lactococcus lactis",
  "test": "Gram-stained smear of co-culture gel, Gram-positive cocci (G+c)",
  "assay_type": "cell-based",
  "details": "cultivated 32 hours",
  "description": "2.1 Experimental strains: one Lactococcus lactis strain and one Lactobacillus jensenii strain, both were clinical isolates.\nThe pH value was adjusted to 5.0.\n2.4 Experimental procedure: the test gel tubes containing different concentrations of antimicrobial agents, as shown in Tables 1 to 6 were inoculated with 100 microliters of Lactobacillus lactis suspension and 100 microliters of Lactobacillus jensenii suspension at the same time. The turbidities of both suspensions were 0.5 MCF. Then the tubes were cultivated at 37° C. and under 5 percent CO2 for 32 hours. Then the changes of the pH values of gels were tested. The gels were smeared, Gram stained, and microscopically examined for the morphology and quantity of bacteria.",
  "note": "For at least one compound, name, drawing or mass did not settle the structure.",
  "data": [
    {"smiles": "CCC(=O)[O-].[Na+]", "note": "[sodium propionate]", "values": [
      {"measurement": "Smear G^+c", "setting": "0.6 % in test gel", "result": "G^+c0~"},
      {"measurement": "Smear G^+c", "setting": "0.7 % in test gel", "result": "G^+c0~"}
    ]}
  ]
}
